Source: the supplement of paper PMC7877785
± gives the uncertainty stated by the source. The uncertainty is large for many entries.

Assay: self-splicing fitness, log relative to wild type (ln ratio); higher = more splicing; Tetrahymena group I intron in knt gene, E. coli kanamycin selection, DiMSum; sequences stand for … in CUCUCU…GGAGGGAAAAGUUAUCAGGCAUGCACCUGGUAGCUAGUCUUUAAACCAAUAGAUUGCAUCGGUUUAAAAGGCAAGACCGUCAAAUUGCGGGAAAGGGGUCAACAGCCGUUCAGUACCAAGUCUCAGGGGAAACUUUGAGAUGGCCUUGCAAAGGGUAUGGUAAUAAGCUGACGGACAUGGUCCUAACCACGCAGCCAAGUCCUAAGUCAACAGAUCUUCUGUUGAUAUGGAUGCAGUUCACAGACUAAAUGUCGGUCGGGGAAGAUGUAUUCUUCUCAUAAGAUAUAGUCGGACCUCUCCUUAAUGGGAGCUAGCGGAUGAAGUGAUGCAACACUGGAGCCGCUGGGAACUAAUUUGUAUGCGAAAGUAUAUUGAUUAGUUUUGGAGUACUCGUGGUCG
Outline: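 Colonies from six replicate transformations of E. coli BL21(DE3) were pooled and amplicon-sequenced on an Illumina HiSeq 2500. The library placed an intron with all eight P1ex-region nucleotides randomised inside the knt kanamycin-resistance gene on pET-22b(+), and cells grew overnight at 37°C or 30°C on LB agar with or without 25 μg/mL kanamycin (plus 100 μg/mL carbenicillin, 50 μM IPTG, 0.2% rhamnose). Fitness is the DiMSum error-weighted combination of wild-type-normalised replicate fold changes, kanamycin versus none.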

Row | Sequence | self-splicing fitness (ln) (30 °C) | self-splicing fitness (ln) (37 °C)
1 | UAACAGCAAUAUUACGACUC | -0.882 ± 0.084 | -0.517 ± 0.11
2 | UCUGAGCAAUAUUACGUUCC | -2.21 ± 1.1 | -1.36 ± 0.62
3 | UCUAAGCAAUAUUACGGGGC | -4.42 ± 0.59 | –
4 | UCCGAGCAAUAUUACGUAAC | -4.49 ± 1 | –
5 | CUUAAGCAAUAUUACGAAUC | – | -2.92 ± 0.75
6 | CUCGAGCAAUAUUACGUUCA | – | -3.31 ± 0.52
7 | UUCUAGCAAUAUUACGCAGC | -3.92 ± 0.73 | –
8 | CCUGAGCAAUAUUACGUAUC | -4.46 ± 0.59 | –
9 | GCGGAGCAAUAUUACGAAGA | -1.93 ± 1.2 | -1.93 ± 0.58
10 | CCACAGCAAUAUUACGCGUU | -3.65 ± 0.092 | -2.91 ± 0.13
11 | AGUGAGCAAUAUUACGGCCA | -3.08 ± 0.79 | -1.26 ± 0.75
12 | UAGGAGCAAUAUUACGAAAG | -3.75 ± 1 | –
13 | GGCUAGCAAUAUUACGCCUU | -4.29 ± 1.1 | –
14 | GGAAAGCAAUAUUACGCCGG | -3.27 ± 0.53 | –
15 | GAUAAGCAAUAUUACGGAUU | -3.19 ± 0.14 | -1.91 ± 0.12
16 | CCCGAGCAAUAUUACGCUUU | -4.16 ± 0.72 | –
17 | UAGGAGCAAUAUUACGGGAA | -4.02 ± 0.6 | -3.68 ± 0.73
18 | GAGGAGCAAUAUUACGAUUG | -3.08 ± 0.54 | –
19 | GGAAAGCAAUAUUACGUCGC | -0.897 ± 0.17 | -0.926 ± 0.2
20 | GUUGAGCAAUAUUACGCUGC | -2.7 ± 0.76 | –
21 | GACUAGCAAUAUUACGCUUC | -3.64 ± 0.73 | -2.58 ± 0.63
22 | UAGAAGCAAUAUUACGAAAC | -3.99 ± 0.52 | -2.39 ± 0.55
23 | GAUGAGCAAUAUUACGCUAC | – | -2.03 ± 0.56
24 | CCUUAGCAAUAUUACGACCC | – | -2.28 ± 0.78

Row | Sequence | self-splicing fitness (ln) (30 °C) | self-splicing fitness (ln) (37 °C)
25 | CGCGAGCAAUAUUACGAGGC | -4.16 ± 1 | -2.47 ± 0.55
26 | GGGUAGCAAUAUUACGUCCC | – | -2.54 ± 0.54
27 | CUUAAGCAAUAUUACGCCUA | – | -3.23 ± 1
28 | CCAAAGCAAUAUUACGGAUG | -1.44 ± 0.069 | -1.48 ± 0.1
29 | GUGGAGCAAUAUUACGCGCU | -3.77 ± 1 | -0.934 ± 0.61
30 | GAUUAGCAAUAUUACGCGCU | -1.18 ± 0.53 | –
31 | GGGGAGCAAUAUUACGCAUG | -4.17 ± 1.1 | -3.38 ± 0.73
32 | AAGUAGCAAUAUUACGCUAC | -1.52 ± 0.71 | -2.47 ± 0.63
33 | UGAGAGCAAUAUUACGAAUA | – | -2.08 ± 0.79
34 | UUCGAGCAAUAUUACGGACA | -2.7 ± 0.22 | -1.79 ± 0.17
35 | CAAUAGCAAUAUUACGUUCU | – | -3.68 ± 0.73
36 | CCAAAGCAAUAUUACGCCUA | -4.18 ± 0.33 | -3.12 ± 0.35
37 | ACAAAGCAAUAUUACGCCAC | – | -3.2 ± 0.6
38 | UGCGAGCAAUAUUACGCUAC | -4.8 ± 1 | –
39 | UCAAAGCAAUAUUACGCAUU | -3.2 ± 0.4 | -3.34 ± 0.37
40 | CGCCAGCAAUAUUACGGGAC | -5.75 ± 0.58 | –
41 | CUAGAGCAAUAUUACGGUUU | – | -4.09 ± 0.51
42 | CGGGAGCAAUAUUACGCGCG | -1.27 ± 1.4 | –
43 | CUCGAGCAAUAUUACGUAAU | -3.14 ± 0.62 | –
44 | GUAUAGCAAUAUUACGAUAC | -3.32 ± 0.74 | -2.34 ± 0.65
45 | UAAUAGCAAUAUUACGAUAC | – | -2.7 ± 0.53
46 | AAGGAGCAAUAUUACGACAC | – | -0.132 ± 0.93
47 | CUUGAGCAAUAUUACGCGAU | 0.0882 ± 0.84 | –
48 | CUGCAGCAAUAUUACGCUCA | -3.88 ± 0.73 | –

A different layout for part of the listing above:

| Row | Sequence | self-splicing fitness (ln) (30 °C) | self-splicing fitness (ln) (37 °C) |
| --- | --- | --- | --- |
| 26 | GGGUAGCAAUAUUACGUCCC | – | -2.54 ± 0.54 |
| 27 | CUUAAGCAAUAUUACGCCUA | – | -3.23 ± 1 |
| 28 | CCAAAGCAAUAUUACGGAUG | -1.44 ± 0.069 | -1.48 ± 0.1 |
| 29 | GUGGAGCAAUAUUACGCGCU | -3.77 ± 1 | -0.934 ± 0.61 |
| 31 | GGGGAGCAAUAUUACGCAUG | -4.17 ± 1.1 | -3.38 ± 0.73 |
| 32 | AAGUAGCAAUAUUACGCUAC | -1.52 ± 0.71 | -2.47 ± 0.63 |
| 33 | UGAGAGCAAUAUUACGAAUA | – | -2.08 ± 0.79 |
| 34 | UUCGAGCAAUAUUACGGACA | -2.7 ± 0.22 | -1.79 ± 0.17 |
| 35 | CAAUAGCAAUAUUACGUUCU | – | -3.68 ± 0.73 |
| 36 | CCAAAGCAAUAUUACGCCUA | -4.18 ± 0.33 | -3.12 ± 0.35 |
| 38 | UGCGAGCAAUAUUACGCUAC | -4.8 ± 1 | – |
| 39 | UCAAAGCAAUAUUACGCAUU | -3.2 ± 0.4 | -3.34 ± 0.37 |
| 40 | CGCCAGCAAUAUUACGGGAC | -5.75 ± 0.58 | – |
| 41 | CUAGAGCAAUAUUACGGUUU | – | -4.09 ± 0.51 |
| 43 | CUCGAGCAAUAUUACGUAAU | -3.14 ± 0.62 | – |
| 44 | GUAUAGCAAUAUUACGAUAC | -3.32 ± 0.74 | -2.34 ± 0.65 |
| 45 | UAAUAGCAAUAUUACGAUAC | – | -2.7 ± 0.53 |
| 46 | AAGGAGCAAUAUUACGACAC | – | -0.132 ± 0.93 |
| 48 | CUGCAGCAAUAUUACGCUCA | -3.88 ± 0.73 | – |

(cont.)

Row | Sequence | self-splicing fitness (ln) (30 °C) | self-splicing fitness (ln) (37 °C)
49 | UGUGAGCAAUAUUACGGAAC | -2.93 ± 1.1 | –
50 | GGGGAGCAAUAUUACGUAGU | -4.52 ± 1 | –
51 | UCGUAGCAAUAUUACGGAGU | – | -3.16 ± 1
52 | CCGAAGCAAUAUUACGGAUC | -4.4 ± 0.73 | -3.33 ± 0.73
53 | ACGAAGCAAUAUUACGAGAC | – | -3.33 ± 1
54 | UCUGAGCAAUAUUACGACUU | – | -2.82 ± 0.54
55 | UCUAAGCAAUAUUACGGCUC | -4.37 ± 0.73 | –
56 | GUCCAGCAAUAUUACGGGCU | – | -2.86 ± 0.53
57 | UCAUAGCAAUAUUACGAAGC | -2.83 ± 0.54 | -4.01 ± 0.59
58 | AACGAGCAAUAUUACGGCGA | -1.95 ± 0.23 | -0.978 ± 0.2
59 | CGUGAGCAAUAUUACGAUUU | -4.47 ± 1 | -2.24 ± 0.29
60 | UCGGAGCAAUAUUACGAAGU | -4.16 ± 1 | –
61 | GGGGAGCAAUAUUACGUUGG | -1.93 ± 1.2 | -1.26 ± 0.73
62 | UGUUAGCAAUAUUACGAUAC | -2.86 ± 0.64 | -1.12 ± 0.55
63 | UUCCAGCAAUAUUACGAAAC | – | -2.29 ± 0.35
64 | AGUAAGCAAUAUUACGAAAC | -3.94 ± 0.36 | -2.65 ± 0.53
65 | UGGGAGCAAUAUUACGACCC | -2.25 ± 1.1 | -1.87 ± 0.79
66 | CUGAAGCAAUAUUACGACCC | – | -2.05 ± 1.1
67 | CAUAAGCAAUAUUACGACCC | -1.28 ± 0.63 | -1.32 ± 0.57
68 | CACCAGCAAUAUUACGGCUG | -3.78 ± 0.13 | -1.29 ± 0.083
69 | UUUAAGCAAUAUUACGGAUC | – | -2.41 ± 0.64
70 | UGACAGCAAUAUUACGCGGC | -6.56 ± 1 | -2.23 ± 1.1
71 | UGCGAGCAAUAUUACGCCUC | – | -2.48 ± 1.1
72 | GGCGAGCAAUAUUACGACCG | -0.74 ± 0.28 | -0.371 ± 0.26

Row | Sequence | self-splicing fitness (ln) (30 °C) | self-splicing fitness (ln) (37 °C)
73 | GAGCAGCAAUAUUACGAAAC | -0.828 ± 0.82 | -1.03 ± 0.93
74 | GCCCAGCAAUAUUACGCACG | – | -3.28 ± 0.52
75 | UGGAAGCAAUAUUACGGGAC | -2.63 ± 0.21 | -3.26 ± 0.32
76 | ACACAGCAAUAUUACGCAGA | -2.48 ± 0.16 | -1.75 ± 0.12
77 | GCCCAGCAAUAUUACGGCCG | – | -1.1 ± 0.92
78 | AUCUAGCAAUAUUACGGGUA | -1.97 ± 0.15 | -1.49 ± 0.12
79 | UUCGAGCAAUAUUACGAUCC | – | -1.12 ± 0.52
80 | GGGAAGCAAUAUUACGACCU | – | -2.13 ± 0.8
81 | GUGGAGCAAUAUUACGCUCC | – | -1.29 ± 1.2
82 | UCUUAGCAAUAUUACGGCCA | – | -2.51 ± 0.77
83 | UCAGAGCAAUAUUACGCGCA | -1.19 ± 0.2 | -1.69 ± 0.29
84 | CUGCAGCAAUAUUACGGCCC | – | -1.55 ± 0.6
85 | GUGCAGCAAUAUUACGGGCC | -2.84 ± 0.53 | -0.728 ± 0.52
86 | UGCUAGCAAUAUUACGAGAA | -1.7 ± 0.54 | -2.2 ± 1.1
87 | UUUGAGCAAUAUUACGGCUU | -2.9 ± 0.61 | -2.86 ± 0.61
88 | UCUCAGCAAUAUUACGGAGU | -2.81 ± 0.22 | -2.49 ± 0.19
89 | CGGUAGCAAUAUUACGCCCG | -3.27 ± 0.54 | -1.39 ± 1.2
90 | GCAGAGCAAUAUUACGCUUU | -4.4 ± 0.52 | -3.01 ± 0.27
91 | UAGUAGCAAUAUUACGUCAU | – | -2.56 ± 0.62
92 | UGCGAGCAAUAUUACGCAAG | – | -2.11 ± 0.51
93 | CUUAAGCAAUAUUACGCGCA | – | -2.8 ± 0.74
94 | GCGGAGCAAUAUUACGGCUC | – | -1.58 ± 0.54
